Some of the results follow.

By UniProt entry, the sequences of proteins in these tests, tags left out.
UniProt Q0JBA9, entry or part of it: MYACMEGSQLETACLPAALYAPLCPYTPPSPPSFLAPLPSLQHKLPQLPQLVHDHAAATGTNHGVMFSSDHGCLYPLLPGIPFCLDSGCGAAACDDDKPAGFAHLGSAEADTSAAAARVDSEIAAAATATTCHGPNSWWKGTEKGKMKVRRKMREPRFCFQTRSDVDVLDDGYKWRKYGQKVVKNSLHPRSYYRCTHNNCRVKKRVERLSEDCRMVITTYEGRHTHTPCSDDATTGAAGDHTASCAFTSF

This note sets out measurements from paper PMC7819943, “Rice protein-binding microarrays: a tool to detect cis-acting elements near promoter regions in rice”.

This experiment deals with OsWRKY34 (Oryza sativa, UniProt Q0JBA9 1-250). As to the kind of experiment: protein-binding microarray (RPBM); PBS, 2% BSA, 51.3 ng/ul salmon testes DNA, 50 uM zinc acetate, 200 nM TF, 25 C, 1 h; high values mean tight binding. To be noted: protein: recombinant; tags: N-terminal polyhistidine and DsRed monomer fusion (pET32a); label: CyDye5-dUTP incorporated in the synthesized complementary strand; 3' TTTTT single-stranded linker to array surface; dsDNA, one strand shown. Summed up:
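The binding signal is fluorescence intensity per feature, in arbitrary units, read on an Axon 4000B scanner. Polyhistidine- and DsRed-tagged transcription factors (N-terminal fusions) from E. coli BL21-CodonPlus were purified on Ni–NTA and applied at 200 nM for 1 h at 25 °C to a double-stranded, BSA-blocked custom Agilent array in buffer with 50 µM zinc acetate.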
Take “GCGGGTCTCTCCCACGTCCATCGCCCGTCACCATCCGCATCGGAGTCACCTAGTGCAG”: the binding signal is 8530 fluorescence intensity (a.u.).

With “ACAAACATTTGCCACTCCGCGCCACGTCACGCTAACTGACCGGAGTCACCTAGTGCAG”, the binding signal is 9810 fluorescence intensity (a.u.).

“CTCGCCTCTAGGGTTCCGCCGTTTTCCGCGGCGCGCCACCCGGAGTCACCTAGTGCAG”: the binding signal is 9410 fluorescence intensity (a.u.).

Regarding “GTTAGCTCTAGATCTCAAATTAATGACTACCCCTGTTTTTCGGAGTCACCTAGTGCAG”, the binding signal was 8700 fluorescence intensity (a.u.).

With “CTACTATTGCGTTGTTTTATTTTGGCCAGTTTATTTCAAACGGAGTCACCTAGTGCAG”, the binding signal is 13400 fluorescence intensity (a.u.).

On to “GAAGGGCGGGAAGTCGGTGTGGGGAGGGTAGGATGAGCTCCGGAGTCACCTAGTGCAG”, for which the binding signal was 16100 fluorescence intensity (a.u.).

Turning to “GTCAGGCACAACCCTTTTTATCAATTCATGCTGCTCTATGCGGAGTCACCTAGTGCAG”, the binding signal was 8400 fluorescence intensity (a.u.).

As for “GCTTTCCACGACTCTCTTTCGCCGCAGTCTCTGCTTCCGTCGGAGTCACCTAGTGCAG”, the binding signal was 11600 fluorescence intensity (a.u.).

Take “AGAAAATTCAGTTGATCTCTCTCTCTCTCTATCTCTCTCTCGGAGTCACCTAGTGCAG”: the binding signal was 9010 fluorescence intensity (a.u.).

In the case of “CCTTGCAGCCACTTTGCTTCAGATTTTTGTGTCTTTTGCTCGGAGTCACCTAGTGCAG”, the binding signal is 9700 fluorescence intensity (a.u.).

Take “AACTTATTAGCCGGTTTTCTTACAACGTTGACCGAAAGTCCGGAGTCACCTAGTGCAG”: the binding signal is 14000 fluorescence intensity (a.u.).

For “TTCTTTTGTAGGCATACTACATCCCTTGCTACTTATGTGACGGAGTCACCTAGTGCAG”, the binding signal was 8030 fluorescence intensity (a.u.).

As to “TGTCATCTTTCATGAAACAGTTTTTGACTGAGTTCGTTGACGGAGTCACCTAGTGCAG”, the binding signal was 9350 fluorescence intensity (a.u.).

On to “TCTTTCTTGTTTTATGTGCTTTACATAATCTTAATCTTCACGGAGTCACCTAGTGCAG”, for which the binding signal is 8960 fluorescence intensity (a.u.).

For the sequence “CGGTTGCTTGGGTGCTTGTATGCTGGGTTTGTGCGATTCGCGGAGTCACCTAGTGCAG”, the binding signal was 12700 fluorescence intensity (a.u.).

For “ACAACTCACTCTCTTCATTTTCCATTCTCGTGCTTTTCAACGGAGTCACCTAGTGCAG”, the binding signal was 16600 fluorescence intensity (a.u.).

Regarding “TGCCAATCTCATGTTTTTGTGTCAAAACCATTGTGCTAGACGGAGTCACCTAGTGCAG”, the binding signal was 10000 fluorescence intensity (a.u.).

On to “AGACGGCCTCCGCGCCGCTATCTCATCTTCCCGTTCTCTCCGGAGTCACCTAGTGCAG”, for which the binding signal was 11000 fluorescence intensity (a.u.).

“AAGTATGATACCGATTTCAACCGTTTTCACCCCTACCCTTCGGAGTCACCTAGTGCAG”: the binding signal was 9600 fluorescence intensity (a.u.).

As to “TTTTCTGTCGATCGGAATTGGTCATCTTTGGTTGGTTCAGCGGAGTCACCTAGTGCAG”, the binding signal is 9690 fluorescence intensity (a.u.).

Take “TTTTTTTTCCTTTGTGCTTGCAGGTCAGAACATCCGTAAGCGGAGTCACCTAGTGCAG”: the binding signal was 10100 fluorescence intensity (a.u.).

With “GAATCTTTGTCGACTGATAGTGTTGAGCTCTGGTTGGGTTCGGAGTCACCTAGTGCAG”, the binding signal is 9690 fluorescence intensity (a.u.).

As for “GTTTGGCCATGGTGCCGTCGTTGTCTCGTTGATGCTTAGTCGGAGTCACCTAGTGCAG”, the binding signal was 10700 fluorescence intensity (a.u.).
